Experimental findings from paper PMC4673135 are described below.

Sequences of proteins named here, by UniProt entry; tags and fusion partners are left off. A change or cut given only in a name is not applied to a line headed by its entry. A line that says so, or that is headed by a name, gives the form on record, which may keep a tag or linker.
UniProt Q9Y297: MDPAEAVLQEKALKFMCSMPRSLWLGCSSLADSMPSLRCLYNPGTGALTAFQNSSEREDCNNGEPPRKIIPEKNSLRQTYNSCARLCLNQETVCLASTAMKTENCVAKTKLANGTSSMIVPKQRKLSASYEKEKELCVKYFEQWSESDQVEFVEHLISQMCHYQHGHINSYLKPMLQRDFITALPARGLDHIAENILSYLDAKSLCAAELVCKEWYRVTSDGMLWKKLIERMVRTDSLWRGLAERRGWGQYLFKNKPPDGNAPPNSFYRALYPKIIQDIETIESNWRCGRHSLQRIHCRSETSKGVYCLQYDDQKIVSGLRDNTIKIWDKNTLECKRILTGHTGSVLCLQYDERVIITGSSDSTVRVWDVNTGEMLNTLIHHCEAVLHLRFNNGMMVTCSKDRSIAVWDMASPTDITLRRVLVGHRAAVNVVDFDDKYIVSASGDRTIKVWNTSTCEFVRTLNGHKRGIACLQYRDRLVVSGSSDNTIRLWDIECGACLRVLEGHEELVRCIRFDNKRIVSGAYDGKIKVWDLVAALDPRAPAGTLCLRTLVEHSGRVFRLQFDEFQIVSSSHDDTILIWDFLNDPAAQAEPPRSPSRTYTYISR
UniProt Q9GZV5: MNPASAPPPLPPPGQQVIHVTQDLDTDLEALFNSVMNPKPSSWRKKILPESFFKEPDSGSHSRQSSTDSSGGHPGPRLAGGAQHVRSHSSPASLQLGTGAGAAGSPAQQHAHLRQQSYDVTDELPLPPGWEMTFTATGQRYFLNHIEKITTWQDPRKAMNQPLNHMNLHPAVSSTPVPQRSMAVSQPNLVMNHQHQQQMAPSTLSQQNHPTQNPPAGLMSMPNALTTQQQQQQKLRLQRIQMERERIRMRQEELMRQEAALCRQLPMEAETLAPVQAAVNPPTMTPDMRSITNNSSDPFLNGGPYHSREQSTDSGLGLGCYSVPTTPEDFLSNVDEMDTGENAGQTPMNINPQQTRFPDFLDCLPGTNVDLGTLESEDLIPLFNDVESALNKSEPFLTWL
TAZ3D-HA (phosphorylation mimicking mutant, S90/S105/T285 to aspartic acid) (Q9GZV5, form named): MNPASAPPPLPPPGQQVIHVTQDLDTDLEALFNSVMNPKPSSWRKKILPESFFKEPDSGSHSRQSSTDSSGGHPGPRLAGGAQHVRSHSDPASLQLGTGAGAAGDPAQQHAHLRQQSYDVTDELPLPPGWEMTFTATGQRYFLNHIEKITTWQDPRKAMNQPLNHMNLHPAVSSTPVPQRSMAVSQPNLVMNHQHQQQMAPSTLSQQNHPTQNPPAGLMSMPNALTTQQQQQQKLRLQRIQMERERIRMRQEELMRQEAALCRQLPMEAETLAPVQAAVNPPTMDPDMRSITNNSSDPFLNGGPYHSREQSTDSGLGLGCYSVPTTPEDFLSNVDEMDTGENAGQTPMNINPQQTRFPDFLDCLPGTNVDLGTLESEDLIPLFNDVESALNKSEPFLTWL
TAZ6D-HA (phosphorylation mimicking mutant, all six Cdk1 sites to aspartic acid) (Q9GZV5, form named): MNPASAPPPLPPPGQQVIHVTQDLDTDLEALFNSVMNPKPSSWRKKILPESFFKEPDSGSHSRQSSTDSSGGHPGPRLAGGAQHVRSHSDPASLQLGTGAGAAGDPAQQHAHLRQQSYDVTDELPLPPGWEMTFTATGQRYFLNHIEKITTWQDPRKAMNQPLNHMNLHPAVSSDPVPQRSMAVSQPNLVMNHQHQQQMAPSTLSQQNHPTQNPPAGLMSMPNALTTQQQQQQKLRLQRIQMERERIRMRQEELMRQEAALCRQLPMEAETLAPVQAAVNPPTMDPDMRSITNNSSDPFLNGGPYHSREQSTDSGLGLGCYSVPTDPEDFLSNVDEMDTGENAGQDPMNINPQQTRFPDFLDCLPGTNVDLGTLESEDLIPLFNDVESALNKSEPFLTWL

In the assay the target is β-TRCP-Flag (UniProt Q9Y297). Put plainly: co-IP; HA-tagged TAZ or its mutant transfected alone or together with β-TRCP-Flag into HeLa cells; MG132 for 8 hours before protein extraction; immunoprecipitation with Flag (M2) antibody, TAZ detected by HA antibody.

No constants are given. Whether binding was seen depends on the method and setting. In cells and extracts the contact can be indirect. Some results given as binding are weak or reduced against the parent protein; the word gives no strength.

Turning to “TAZ3D-HA (phosphorylation mimicking mutant, S90/S105/T285 to aspartic acid) (from UniProt Q9GZV5 1-400)”, the binding entry is “binds”.

As for “TAZ-HA (wild-type TAZ, Transcriptional co-activator with PDZ binding motif) (from UniProt Q9GZV5 1-400)”, the binding result is on record as “binds”. For “TAZ6D-HA (phosphorylation mimicking mutant, all six Cdk1 sites to aspartic acid) (from UniProt Q9GZV5 1-400)” the value was “binds”.
